These are yes or no findings as the source states them, for the method shown. For part of these data: Binding seen in cells or lysates may run through a third protein. Some results given as binding are weak or reduced against the parent protein; the word gives no strength. For part of these data: Sequences can lack the tags named with a protein. Values belong to the molecule of their own block, whether it stands above or below them.
Assays:
[1] = target: T1, endogenous YTHDF1 (human (endogenous in HeLa)) (UniProt Q9BYJ9); assay: co-IP; cell lysates immunoprecipitated with anti-YTHDF1 antibodies; endogenous proteins
T1 sequence: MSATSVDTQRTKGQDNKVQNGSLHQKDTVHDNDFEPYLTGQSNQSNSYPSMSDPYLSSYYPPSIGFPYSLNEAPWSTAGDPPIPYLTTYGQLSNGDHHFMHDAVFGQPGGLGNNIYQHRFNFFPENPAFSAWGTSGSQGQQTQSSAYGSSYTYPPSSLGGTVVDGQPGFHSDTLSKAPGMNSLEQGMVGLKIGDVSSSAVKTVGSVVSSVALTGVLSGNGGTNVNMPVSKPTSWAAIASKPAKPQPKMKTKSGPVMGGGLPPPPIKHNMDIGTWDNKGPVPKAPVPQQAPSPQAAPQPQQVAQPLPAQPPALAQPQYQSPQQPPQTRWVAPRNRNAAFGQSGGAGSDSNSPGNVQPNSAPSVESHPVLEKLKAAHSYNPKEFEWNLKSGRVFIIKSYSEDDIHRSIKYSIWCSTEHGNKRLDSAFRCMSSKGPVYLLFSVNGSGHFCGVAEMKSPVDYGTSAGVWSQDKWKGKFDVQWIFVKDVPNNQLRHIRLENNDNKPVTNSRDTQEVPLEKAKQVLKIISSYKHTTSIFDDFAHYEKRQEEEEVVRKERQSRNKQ

The chains behind the UniProt entries cited, without tags or fusion partners.
UniProt O14980: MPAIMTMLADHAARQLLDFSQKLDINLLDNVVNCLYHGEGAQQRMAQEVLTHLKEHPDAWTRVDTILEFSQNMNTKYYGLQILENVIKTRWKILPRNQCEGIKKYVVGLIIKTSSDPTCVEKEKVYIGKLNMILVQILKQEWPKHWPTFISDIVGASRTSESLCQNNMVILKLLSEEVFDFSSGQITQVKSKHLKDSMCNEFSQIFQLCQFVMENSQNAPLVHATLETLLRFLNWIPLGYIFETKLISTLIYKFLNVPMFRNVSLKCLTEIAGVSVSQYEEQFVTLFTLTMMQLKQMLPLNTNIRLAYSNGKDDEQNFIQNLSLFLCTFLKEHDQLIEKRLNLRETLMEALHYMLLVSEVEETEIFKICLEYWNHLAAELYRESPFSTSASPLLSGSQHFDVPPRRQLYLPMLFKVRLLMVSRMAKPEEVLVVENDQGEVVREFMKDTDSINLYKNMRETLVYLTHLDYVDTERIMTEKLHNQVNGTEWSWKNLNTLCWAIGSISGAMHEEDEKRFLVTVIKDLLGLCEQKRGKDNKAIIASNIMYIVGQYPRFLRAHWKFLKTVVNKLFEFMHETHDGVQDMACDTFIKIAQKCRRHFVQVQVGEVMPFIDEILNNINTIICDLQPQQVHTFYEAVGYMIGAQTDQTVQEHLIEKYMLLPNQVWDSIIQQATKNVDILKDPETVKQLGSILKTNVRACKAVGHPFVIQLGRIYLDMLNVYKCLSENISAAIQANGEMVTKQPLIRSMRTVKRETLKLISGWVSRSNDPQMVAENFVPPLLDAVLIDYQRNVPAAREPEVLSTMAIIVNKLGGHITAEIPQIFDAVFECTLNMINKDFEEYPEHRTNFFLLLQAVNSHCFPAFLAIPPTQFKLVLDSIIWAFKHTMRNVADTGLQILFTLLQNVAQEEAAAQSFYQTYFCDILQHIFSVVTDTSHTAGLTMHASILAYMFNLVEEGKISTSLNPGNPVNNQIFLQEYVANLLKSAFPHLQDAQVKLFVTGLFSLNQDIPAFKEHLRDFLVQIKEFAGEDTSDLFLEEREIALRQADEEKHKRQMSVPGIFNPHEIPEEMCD

[2] = target: T2, SFB-YTHDF1-WT (UniProt Q9BYJ9); assay: co-IP; cells transfected with SFB-YTHDF1 (WT, AFA or 4A) and HA-CRM1; some samples treated with KPT-330 (Crm1 inhibitor, 5 uM, 24 h), TMG plus glucose, or acetyl-5S-GlcNAc (OGT inhibitor, 100 uM, 24 h)
T2 sequence: T1 sequence

[3] = target: T3, Flag-YTHDF1 (YTH domain family 1) (UniProt Q9BYJ9); assay: co-IP; 293T cells transfected with Flag-YTHDF1 and HA-OGT; lysates immunoprecipitated and immunoblotted
T3 sequence: T1 sequence

[4] = target: T4, recombinant glutathione-S-transferase-YTHDF1 (UniProt Q9BYJ9); assay: pull-down; lysates of 293T cells transfected with HA-OGT incubated with recombinant GST-YTHDF1; only the target purified
T4 sequence: T1 sequence

[5] = target: T4, recombinant glutathione-S-transferase-YTHDF1; assay: pull-down; recombinant His-OGT and GST-YTHDF1 proteins incubated; both purified
[6] = target: T5, endogenous OGT (O-GlcNAc transferase) (human (endogenous in HeLa)) (UniProt O15294); assay: co-IP; HeLa cell lysates immunoprecipitated with anti-OGT antibodies; endogenous proteins
T5 sequence: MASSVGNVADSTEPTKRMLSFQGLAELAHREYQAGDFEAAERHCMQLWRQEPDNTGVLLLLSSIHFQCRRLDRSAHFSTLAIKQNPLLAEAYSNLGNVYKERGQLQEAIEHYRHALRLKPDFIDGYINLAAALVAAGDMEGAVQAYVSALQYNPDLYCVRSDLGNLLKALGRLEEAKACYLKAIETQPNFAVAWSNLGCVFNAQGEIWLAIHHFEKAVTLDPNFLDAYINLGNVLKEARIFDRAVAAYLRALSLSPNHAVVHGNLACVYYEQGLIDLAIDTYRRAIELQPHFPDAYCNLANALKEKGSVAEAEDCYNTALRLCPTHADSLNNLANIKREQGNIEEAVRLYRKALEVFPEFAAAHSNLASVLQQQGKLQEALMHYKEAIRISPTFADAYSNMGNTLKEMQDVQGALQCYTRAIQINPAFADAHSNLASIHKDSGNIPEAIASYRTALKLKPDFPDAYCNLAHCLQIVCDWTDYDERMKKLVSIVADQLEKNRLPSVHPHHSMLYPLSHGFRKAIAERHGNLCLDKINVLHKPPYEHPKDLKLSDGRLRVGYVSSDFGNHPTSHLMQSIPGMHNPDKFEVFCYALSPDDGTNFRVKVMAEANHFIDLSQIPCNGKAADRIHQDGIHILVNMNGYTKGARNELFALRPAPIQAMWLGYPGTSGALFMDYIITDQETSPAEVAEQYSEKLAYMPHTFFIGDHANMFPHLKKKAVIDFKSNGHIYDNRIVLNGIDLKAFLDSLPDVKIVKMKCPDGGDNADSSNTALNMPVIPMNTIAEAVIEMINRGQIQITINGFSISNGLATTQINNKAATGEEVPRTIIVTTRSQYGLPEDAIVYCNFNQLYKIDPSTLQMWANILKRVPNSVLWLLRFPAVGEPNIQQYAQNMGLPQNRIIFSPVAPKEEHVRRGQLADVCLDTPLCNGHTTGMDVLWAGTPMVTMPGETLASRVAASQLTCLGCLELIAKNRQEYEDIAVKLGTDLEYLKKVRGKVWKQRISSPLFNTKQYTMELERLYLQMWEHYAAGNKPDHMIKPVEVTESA

binding [1]: binds
Molecule: endogenous Crm1 (exportin 1) (from UniProt O14980 1-1071)

binding [2]: binds
Molecule: HA-CRM1 (exportin 1) (from UniProt O14980 1-1071)

binding [3]: binds
binding [4]: binds
B1: HA-OGT (O-GlcNAc transferase) (enzyme, UniProt O15294 1-1046)
chain: T5 sequence

binding [5]: binds
B2: recombinant His-OGT (enzyme, UniProt O15294 1-1046)
chain: T5 sequence

binding [6]: binds
B3: endogenous YTHDF1 (protein, UniProt Q9BYJ9 1-559)
chain: T1 sequence
